Test results as given in paper PMC9712689.

Chains of the proteins cited; added tags and fusions are not shown. Residues count along the entry.
UniProt Q9HXN1, residues 33-490: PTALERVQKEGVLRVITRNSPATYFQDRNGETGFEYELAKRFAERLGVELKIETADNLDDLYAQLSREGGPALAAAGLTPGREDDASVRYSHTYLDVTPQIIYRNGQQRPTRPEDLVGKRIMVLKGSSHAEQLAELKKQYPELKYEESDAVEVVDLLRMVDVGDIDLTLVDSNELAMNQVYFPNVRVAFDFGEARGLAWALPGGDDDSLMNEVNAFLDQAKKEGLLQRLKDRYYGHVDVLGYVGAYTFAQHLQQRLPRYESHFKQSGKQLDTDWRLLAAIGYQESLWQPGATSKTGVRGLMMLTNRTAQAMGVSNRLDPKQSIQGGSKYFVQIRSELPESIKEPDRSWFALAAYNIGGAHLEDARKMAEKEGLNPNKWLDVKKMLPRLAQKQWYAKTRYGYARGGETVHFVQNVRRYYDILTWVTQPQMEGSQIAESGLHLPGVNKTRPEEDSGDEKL

Key:
[1] = biological target: RlpA-Δ32 (rare lipoprotein A), N-terminally His-tagged (P. aeruginosa PAO1) (UniProt Q9X6V6); test: affinity purification with mass spectrometry; only the target purified
[2] = biological target: MltG, N-terminal His-tagged construct (P. aeruginosa) (UniProt Q9HZN7); test: as above
[3] = biological target: MltA, N-terminal His-tagged construct (P. aeruginosa) (UniProt Q9I4B6); test: affinity purification with mass spectrometry; N-terminally His-tagged LT on Ni-NTA resin incubated with the soluble or the 0.5% NP-40-solubilised membrane proteome of P. aeruginosa PAO1, 4 °C overnight; eluted with 500 mM imidazole; no cross-linker; only the target purified
[4] = biological target: MltB, N-terminal His-tagged construct (P. aeruginosa) (UniProt Q9HVX3); test: as above
[5] = biological target: MltD, N-terminal His-tagged construct (P. aeruginosa) (UniProt Q9I2T2); test: as above
[6] = biological target: MltF, N-terminal His-tagged construct (P. aeruginosa) (UniProt Q9HXN1); test: as above
[7] = biological target: MltF2, N-terminal His-tagged construct (P. aeruginosa) (UniProt Q9HZY1); test: as above
[8] = biological target: MltG, N-terminal His-tagged construct (P. aeruginosa) (UniProt Q9HZN7); test: as above
[9] = biological target: RlpA-Δ32 (rare lipoprotein A), N-terminally His-tagged (P. aeruginosa PAO1) (UniProt Q9X6V6); test: as above
[10] = biological target: Slt, N-terminal His-tagged construct (P. aeruginosa) (UniProt Q9HZI6); test: as above
[11] = biological target: MltB, N-terminal His-tagged construct (P. aeruginosa) (UniProt Q9HVX3); test: affinity purification with mass spectrometry; only the target purified
[12] = biological target: MltD, N-terminal His-tagged construct (P. aeruginosa) (UniProt Q9I2T2); test: as above
[13] = biological target: MltF2, N-terminal His-tagged construct (P. aeruginosa) (UniProt Q9HZY1); test: as above
[14] = biological target: MltF, N-terminal His-tagged construct (P. aeruginosa) (UniProt Q9HXN1); test: as above
[15] = biological target: Slt, N-terminal His-tagged construct (P. aeruginosa) (UniProt Q9HZI6); test: as above

Measured: binding

B1: PilO (protein, UniProt G3XD51 1-207)
chain: MSLASSLESLRKIDINDLDLNNIGSWPAAVKVIVCVLLTAAVLALGYNFHLSDMQAQLEQQAAEEETLKQQFSTKAFQAANLEAYKAQMKEMEESFGALLRQLPSDTEVPGLLEDITRTGLGSGLEFEEIKLLPEVAQQFYIELPIQISVVGGYHDLATFVSGVSSLPRIVTLHDFEIKPVAPGSTSKLRMSILAKTYRYNDKGLKK
binds: [1]

B2: PmrB (protein, UniProt Q9HV31 1-477)
chain: MSRAAVPSVRRRLLVNLLVGFVLCWLSVAALTYHLSLKQVNRLFDDDMVDFGEAALRLLDLATEDQAGEDGSITEIIERSREAIQGLPLLRRESALGYALWRDGQPLLSSLNLPPEITAQGPGFSTVEAQGTHWRVLQLNIDGFQIWISENLIYRQHTMNLLLFYSLFPLLLALPLLGGLVWFGVARGLAPLREVQAEVQQRSARHLQPIAVEAVPLEIRGLIDELNLLLERLRTALEAERRLTSDAAHEIRTPLASLRTHAQVALRSEDPKAHARGLLQVSRSVERISTLMEQILLLARLDGDALLEQFHPVNLATLAEDVLSELARQAIDKDIELSLHQETVYVMGIDLWLKAMVGNLVGNALRYTPAGGQVEIRVENRAQHAVLRVRDNGPGVALEEQQAIFTRFYRSPATSSGEGSGLGLPIVKRIVELHFGSIGLGKGLEGKGLEVQVFLPKTQPDATRPPARGPDSGRSHI
binds: [1]

B3: PilA (protein, UniProt P04739 7-149)
chain: FTLIELMIVVAIIGILAAIAIPQYQNYVARSEGASALATINPLKTTVEESLSRGIAGSKIKIGTTASTATETYVGVEPDANKLGVIAVAIEDSGAGDITFTFQTGTSSPKNATKVITLNRTADGVWACKSTQDPMFTPKGCDN
binds: [2] | [1]

B4: PBP7 (protein, UniProt P72161 24-310)
chain: SPPPKAGLPLQQELASGSALVTDQNTGKVLYSRNPDLVVPIASITKLMTAMVVLDSKLPLDEVLPIAISETSEMRGVFSRVRVGSQISRRDMLLLALMSSENRAAASLAQNYPGGKNAFVKAMNAKAHALGMKNTRYVEPTGLSLHNVSTARDLTRLLVASRQYPLLSQWSTTPEKTVAFRHPNYTLGFRNTNHLINNKTWNIQLTKTGFTNEAGHCLVMRTTINRSPVNLVVLDAFGKYTHFADATRLRRWLETGQVTAIPAAAKAYRLQRDRERGLGQPVAQAVR
binds: [3] | [4] | [5] | [6] | [7] | [8] | [9] | [10]

B5: PA2530 (protein, UniProt Q9I0V3 1-441)
chain: MHQRQHFEALAEDLRRHLAEGEDFTLWYSAEDSEFIRFNRARVRQAGRVRQASALLRLIRDERQASLDLTLSGAPEEDRQRLAEGLRQLRQSLAWIPADPYLLLDTSAWQRENQDLGAAPDSGALLASLERRARDLDLVGIYAAGPLFRGFANSWGAFGWHAGSSFNFDWSLFHGNGQAVKADYAGQRWDDEAFARRFEQAREQLGHLGKPLRQLRPGDYRAYLAPAALEEVMQMLCWGGFSARALATGESPLQRLQNGDALLSPLLNLAERPATSPSPAFSAEGSPRAEVELVGNGRLSGRLVSSRSAREYGLVANGAGANEAPTALDMAGGSLEQARILEALDTGLYIGNLWYLNYSDMPAARLTGMTRFATFWVENGQIRAPVSTMRFDDSLYSFLGAHLEDLSHERELRLSSNTYGERQTDSMHLPGALTGRFTLTL
binds: [11] | [12] | [13]

B6: PA5043 (protein, UniProt G3XD30 1-198)
chain: MARINLLPWREELREQRKQQFLVILGGVLVASAALVFLGDQYFTAAIENQNARNDFLRKEIVVLDARIKEISELKSRRQQLLERMKIIQDLQGNRPIIGRVFDQLVRTLPDGVYFTDLKMTGKNIAIAGAAESNNRVSNLMRNMDASEWLTAPTLNEVKAVTQGAVDQANVFQLTVQQTQPGEEDAKAKHGVAQGAKK
binds: [14] | [15]

B7: PA0788 (protein, UniProt Q9I5F0 1-1041)
chain: MNCAATGGASMGASERSTNDPSELQPCSLPASASPRKSRLRQRLMLIGFALPILAAVGIVVLHEAHTSRLQARELARYAATLDYEVRQGPSEAILFPADGPFDRRLGYQLLPSFMQRLYDRDYAITRQAHFSPALMRYAEHRLFPPYAEKAQAGLDIADCRGVPIYDFRYPQRRYANFASLPPLVVQSLLFIENRDLLDHERPYLNPAVDWGRFTQAALSQVGKMLGFSAHSSGGSTLATQIEKYRHSAEGRTGSIGDKLRQMLSASVRSYREGPANFAARQDIVLTYLNSVPLSAAPGYGEVTGLADGLWVWYGADYRQVGEALDGKAGLAAQGLALRQVLALMIAHRRPSFYLAPRGRDELDRMTDSHLRVLTQAGVIEAPLRDAALAQKLAFRDPRSQPTVQPLPTNKGVTLARTRLAGMLGVPLYDLDRLDLRANTTLQHELQESVTAYLQKLADPDYAAQLGLIGERLLTPTSTRSVRYSFTLFERTPSGNQVRVQTDNTDQPFDINEGSKLELGSTAKLRVLASYLETVAQIHRDYGGMSVAELRKVEVEPLDFILRWGIDYLVASRDRDLSAMLQAAMERRYSASPYESFFTGGGLHTFNNFRKEDNGRRPMLLEALRESINLPFVRLLRDLIRHDIYQNAGSKVQLLADDKDPRRADYLDRFVDKESQVYLRRFWVKYRDKDANQRLETFLDGLRPWPVRLAAIHRYLQPQADLASFSAFLRERLPRGSLTDKRAAELYERYGPGKFNLNDQGYVARVHPLELWLLGYLQKQPQATFGEAVAASGAERKEVYGWLFKSRHKNARDKRIRILLEVEAFLDLHQQWKKLGYPFDHLVPSYATALGSSGDRPAALAELMGIIVNDGVRMPTLRLEHLDFALGTPYETRFAPEATLGQRVMTSEVATTLRNALSQVVDAGTARRLQGTFSRPDGAPLVMGGKTGTGDNRLQTFSAGGHVRSSKALNRTATFVFYIGPRHFGTLTAYVDGSESSQFKFTSALPVQVLKGMAPLLRDYLDPRTATRCQVPLSPQQIGRL
binds: [1]

B8: RlpA (rare lipoprotein A) (protein, UniProt Q9X6V6 27-342)
chain: CSSKAPQQPARQAGISGPGDYSRPHRDGAPWWDVDVSRIPDAVPMPHNGSVKANPYTVLGKTYYPMNDARAYRMVGTASWYGTKFHGQATANGETYDLYGMTAAHKTLPLPSYVRVTNLDNGKSVIVRVNDRGPFYSDRVIDLSFAAAKKLGYAETGTARVKVEGIDPVQWWAQRGRPAPMVLAQPKQAVAQAAPAAAQTQAVAMAQPIETYTPPPAQHAAAVLPVQIDSKKNASLPADGLYLQVGAFANPDAAELLKAKLSGVTAAPVFISSVVRNQQILHRVRLGPIGSADEVSRTQDSIRVANLGQPTLVRPD
binds: [3] | [4] | [5] | [6] | [7] | [8] | [10]

No constants are given. Whether binding was seen depends on the method and setting. Binding seen in cells or lysates may run through a third protein. Here binding means that the protein was enriched with, or labelled near, the bait; the list need not be complete.
